Experimental data as given in paper PMC12040169 (PLOS Biology, 2025).
Where two headings read alike, the source gives them in different places. The list shows a part of the results.

System: T1, CTL2-GFP (C. trachomatis L2/434/Bu, GFP-expressing)
T1 construct: L2/434/Bu, GFP-expressing
Set-up: species or system HeLa; Intracellular C. trachomatis growth in HeLa cells, bulk GFP fluorescence relative to DMSO
Details: bulk GFP, single well, 28.5 h, 10 µM, inhibitor

**Q.** With `CC(C)Nc1nccnc1Sc1cccc2ccccc12` [CBK089493] as the compound, how does the “% of control remaining” value read?
**A.** Its value is 100.393%.

**Q.** For `O=C1CCN(C(=O)c2ccccn2)CCN1Cc1cccc(F)c1` [CBK284467], which “% of control remaining” value is on record?
**A.** The value was 126.935%.

**Q.** With `Oc1ccc(Cn2cnc3ccccc32)c2cccnc12` [CBK291202] as the compound, how does the “% of control remaining” value read?
**A.** Its value is 41.6373%.

**Q.** Which “% of control remaining” value does the source give for `N#Cc1ccccc1Cn1cc(C(=O)C(N)=O)c2ccccc21` [CBK269862] here?
**A.** The value was 107.103%.

**Q.** Which “% of control remaining” value does the source give for `Cc1cc(C(=O)NCCn2ccnc2C)c2ccccc2n1` [CBK281895] here?
**A.** Its value is 119.778%.

**Q.** With `CC(C)CC1C(C#N)=C(N)Oc2n[nH]c(-c3cccs3)c21` (stereo not drawn) [CBK267449] as the compound, how does the “% of control remaining” value read?
**A.** Its value is 107.769%.

**Q.** How did the “% of control remaining” value turn out when `Cc1cccc(NC(=S)N2CCN(Cc3ccc4c(c3)OCO4)CC2)c1C` [CBK264919] was run?
**A.** Its value is 100%.

**Q.** With `Clc1ccc(-c2cncc(NCCc3ccncc3)n2)cc1` [CBK065787] as the compound, how does the “% of control remaining” value read?
**A.** The value was 132.34%.

**Q.** With `Cc1cc(C(=O)Nc2ccccc2C(=O)O)ccc1NC(=O)CC(C)C` [CBK263616] as the compound, how does the “% of control remaining” value read?
**A.** The value was 101.1%.

**Q.** With `C=CCn1c2ccccc2c2nnc(SC(CC)C(=O)N3c4ccccc4Sc4ccccc43)nc21` (stereo not drawn) [CBK263040] as the compound, how does the “% of control remaining” value read?
**A.** The value was 100%.

**Q.** Which “% of control remaining” value does the source give for `Cc1cccc(OCC(=O)Nc2sc3c(c2C(N)=O)CCC3)c1C` [CBK269729] here?
**A.** The value was 132.958%.

**Q.** How did the “% of control remaining” value turn out when `c1cncc(-c2ccc(N3CCN(CCN4CCCC4)CC3)nc2)c1` [CBK037661] was run?
**A.** Its value is 171.423%.

**Q.** For `CCNC(=O)N1CC2(CCN(Cc3ccc4nsnc4c3)CC2)c2ccccc21` [CBK136968], which “% of control remaining” value is on record?
**A.** The value was 109.507%.

**Q.** `CSc1nc(O)c(C(c2ccc(Cl)cc2)c2c(O)nc(SC)nc2O)c(O)n1` [CBK265306] was tested. Which “% of control remaining” value did it give?
**A.** Its value is 128.754%.

**Q.** How did the “% of control remaining” value turn out when `O=C(O)CC1S/C(=N/N=C/c2ccc(-c3ccc(Cl)cc3[N+](=O)[O-])o2)NC1=O` (stereo not drawn) [CBK264507] was run?
**A.** The value was 110.208%.

**Q.** Which “% of control remaining” value does the source give for `CCN(CC(=O)NC(C)C)Cc1csc(-c2ccc(F)cc2)n1` [CBK305849] here?
**A.** Its value is 100.474%.

**Q.** Which “% of control remaining” value does the source give for `Cc1csc(NC(=O)CN2CC=C(c3ccc(C)o3)CC2)n1` [CBK283606] here?
**A.** The value was 130.227%.

**Q.** Which “% of control remaining” value does the source give for `CC(C)NC(=O)c1cccc2c1CCCN2Cc1nc2ccccc2o1` [CBK295135] here?
**A.** The value was 145.297%.

**Q.** `CNC(=O)NC(=O)C1CCN(CCOc2ccccc2)CC1` [CBK034959] was tested. Which “% of control remaining” value did it give?
**A.** The value was 65.2751%.

**Q.** `Cc1nc2c(c(=O)[nH]1)CN(Cc1c(C)oc3ccccc13)CC2` [CBK283984] was tested. Which “% of control remaining” value did it give?
**A.** Its value is 110.438%.

**Q.** For `COc1cc(NC(=O)COc2cc(C)cc(C)c2)c(C(=O)O)cc1OC` [CBK268650], which “% of control remaining” value is on record?
**A.** Its value is 129.973%.

**Q.** Which “% of control remaining” value does the source give for `O=C(CCN1CCOCC1)N/N=C\c1cccs1` [CBK005035] here?
**A.** Its value is 120.206%.

**Q.** How did the “% of control remaining” value turn out when `O=C(NCc1cccnc1OCC(F)(F)F)c1ccc(=O)[nH]n1` [CBK305578] was run?
**A.** Its value is 128.363%.

**Q.** With `CC(C)(CO)Cn1c(=O)[nH]c2ncc(-c3ccc(C(N)=O)cc3)nc21` [CBK064787] as the compound, how does the “% of control remaining” value read?
**A.** The value was 135.869%.

**Q.** Which “% of control remaining” value does the source give for `CC(CC(=O)C1C(C)C=CCC1(C)C)NNC(=O)c1ccccc1O` (stereo not drawn) [CBK262980] here?
**A.** Its value is 91.6123%.

**Q.** Which “% of control remaining” value does the source give for `Clc1cc(CSc2nnnn2-c2ccccc2)cc2c1OCCCO2` [CBK297159] here?
**A.** The value was 115.47%.

**Q.** `CC(C)CC(NC(=O)C1CCC(C)CC1)C(=O)O` (stereo not drawn) [CBK287212] was tested. Which “% of control remaining” value did it give?
**A.** Its value is 114.875%.

**Q.** With `Cc1ccc(NC(=O)N(Cc2ccccc2Br)CC(C)(C)CN)cc1[N+](=O)[O-]` [CBK002436C] as the compound, how does the “% of control remaining” value read?
**A.** The value was 59.1218%.

**Q.** Which “% of control remaining” value does the source give for `COc1ccc(C(=O)Nc2nc(-c3nc4ccccc4s3)cs2)cc1` [CBK287563] here?
**A.** Its value is 148.945%.

**Q.** With `COc1ccc(C2N3CCCN2CC3)cc1` (stereo not drawn) [CBK067068] as the compound, how does the “% of control remaining” value read?
**A.** The value was 126.181%.

**Q.** For `CS(=O)(=O)c1ccc(-c2ccnc3nc(N)ccc23)cc1` [CBK067648], which “% of control remaining” value is on record?
**A.** Its value is 126.224%.

**Q.** `COc1ccc(C)cc1S(=O)(=O)n1ccc2c(OC3CCCN(C)C3)nccc21` (stereo not drawn) [CBK051582C] was tested. Which “% of control remaining” value did it give?
**A.** The value was 146.805%.

**Q.** `CC(C)CC(NC(=O)c1ccccc1)C(=O)OCC(=O)Nc1nc2ccccc2s1` (stereo not drawn) [CBK085134] was tested. Which “% of control remaining” value did it give?
**A.** Its value is 118.039%.

**Q.** `COc1ccccc1CNC(=O)c1ccc2nc(C)c(N(C)C(=O)c3cccs3)n2c1` [CBK146546] was tested. Which “% of control remaining” value did it give?
**A.** The value was 149.544%.

**Q.** With `O=C(COc1cccnc1)NCc1ccc(-c2csnn2)cc1` [CBK149312] as the compound, how does the “% of control remaining” value read?
**A.** The value was 106.247%.

**Q.** For `Cc1cc(NC(=O)C(C)(C)Oc2ccc(Cl)cc2)nc2c1c(=O)oc1ccccc12` [CBK291132], which “% of control remaining” value is on record?
**A.** The value was 107.736%.

**Q.** For `Cc1noc(C)c1C(=O)N1CCCCCC1c1c(Cl)cnn1C` (stereo not drawn) [CBK284918], which “% of control remaining” value is on record?
**A.** The value was 107.296%.

**Q.** Which “% of control remaining” value does the source give for `Cc1noc(C)c1C(=O)Nc1cnc(-c2ccc(F)cc2)c(-c2ccsc2)n1` [CBK036781] here?
**A.** Its value is 92.8532%.

**Q.** `O=C(CCn1cnc2ccccc21)N1CCC(c2ccncc2)CC1` [CBK283522] was tested. Which “% of control remaining” value did it give?
**A.** The value was 128.895%.

**Q.** How did the “% of control remaining” value turn out when `c1ccc(CN2C[C@H]3CCc4c[nH]nc4[C@H]3C2)nc1` [CBK282108] was run?
**A.** Its value is 158.985%.

**Q.** With `COc1ccc(C(C)c2cc3c(cc2N)OCO3)cc1` (stereo not drawn) [CBK200102T] as the compound, how does the “% of control remaining” value read?
**A.** Its value is 88.7804%.

**Q.** With `COc1cccc(-c2nccc3ccn(CC(=O)N4CC=CCC4)c23)c1` [CBK284806] as the compound, how does the “% of control remaining” value read?
**A.** The value was 134.179%.

**Q.** `CCOC1=NCCN2CCc3cccc1c32` [CBK023113] was tested. Which “% of control remaining” value did it give?
**A.** Its value is 113.149%.

**Q.** Which “% of control remaining” value does the source give for `CCCN(C)Cc1ccc(-c2nnn(CC(=O)NCc3ccc(CC)cc3)n2)cc1NC(C)=O` [CBK164703] here?
**A.** The value was 117.51%.

**Q.** With `N/C(=N\OC(=O)c1cccc(Br)c1)c1ccccc1` [CBK261703] as the compound, how does the “% of control remaining” value read?
**A.** Its value is 106.958%.

**Q.** With `N#C/C(=C\c1cn(Cc2ccc(Cl)cc2Cl)nc1-c1ccccc1)c1nc2ccccc2[nH]1` [CBK262545] as the compound, how does the “% of control remaining” value read?
**A.** The value was 112.223%.

**Q.** Which “% of control remaining” value does the source give for `Cc1nnc(SCC(=O)N/N=C/c2cc([N+](=O)[O-])ccc2O)n1-c1ccccc1` [CBK262768] here?
**A.** The value was 116.287%.

**Q.** `COc1ccc2[nH]c3c(c2c1)CCN(S(C)(=O)=O)C31CCN(CCOc2ccccc2)C1` (stereo not drawn) [CBK063187T] was tested. Which “% of control remaining” value did it give?
**A.** The value was 118.828%.

**Q.** Which “% of control remaining” value (Bulk GFP fluorescence) does the source give for `Clc1ccc(COc2nccnc2OC2CCN(CC3CC3)CC2)cc1Cl` [CBK083123] here?
**A.** The value was 125.025%.

**Q.** With `Cc1cc2c(s1)c1cnn(Cc3cccnc3)c(=O)c1n2C` [CBK284154] as the compound, how does the “% of control remaining” value read?
**A.** The value was 128.344%.

**Q.** How did the “% of control remaining” value turn out when `Cn1nc(C(C)(C)C)cc1C(=O)N1CCNC(=O)C1Cc1ccccc1-c1ccc(F)cc1` (stereo not drawn) [CBK285830] was run?
**A.** The value was 121.031%.
